Assay results as given in PMC10284700.
No constants are given. Whether binding was seen depends on the method and setting. Binding can be weak; no strength is given.

Target: T1, entire extracellular domain of human αKlotho (residues Met1 to Ser981) (human) (UniProt Q9UEF7)
T1 sequence: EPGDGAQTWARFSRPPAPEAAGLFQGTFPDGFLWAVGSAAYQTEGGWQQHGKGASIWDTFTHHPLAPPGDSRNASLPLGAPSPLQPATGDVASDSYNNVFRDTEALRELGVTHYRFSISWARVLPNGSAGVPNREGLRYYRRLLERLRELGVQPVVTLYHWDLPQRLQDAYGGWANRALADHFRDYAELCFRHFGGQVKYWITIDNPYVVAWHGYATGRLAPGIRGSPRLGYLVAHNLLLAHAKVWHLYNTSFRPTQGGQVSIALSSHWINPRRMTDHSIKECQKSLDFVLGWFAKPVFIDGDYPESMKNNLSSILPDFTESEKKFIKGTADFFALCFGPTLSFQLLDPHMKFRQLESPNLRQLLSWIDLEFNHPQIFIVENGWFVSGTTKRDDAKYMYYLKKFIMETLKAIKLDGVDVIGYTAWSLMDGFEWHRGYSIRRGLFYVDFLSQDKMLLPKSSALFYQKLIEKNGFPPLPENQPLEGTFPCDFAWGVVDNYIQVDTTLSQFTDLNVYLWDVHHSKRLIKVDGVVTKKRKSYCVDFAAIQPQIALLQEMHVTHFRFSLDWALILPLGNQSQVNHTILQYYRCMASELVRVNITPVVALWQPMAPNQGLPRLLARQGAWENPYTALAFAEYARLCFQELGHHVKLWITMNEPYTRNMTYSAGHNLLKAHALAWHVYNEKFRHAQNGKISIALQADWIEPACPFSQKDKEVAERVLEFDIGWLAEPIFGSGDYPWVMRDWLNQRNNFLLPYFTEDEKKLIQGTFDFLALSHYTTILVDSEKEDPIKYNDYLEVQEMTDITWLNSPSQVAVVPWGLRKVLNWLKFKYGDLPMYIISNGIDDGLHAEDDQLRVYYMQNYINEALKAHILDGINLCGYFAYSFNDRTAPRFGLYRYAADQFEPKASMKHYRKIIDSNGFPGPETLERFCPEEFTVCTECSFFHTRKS
Experiment: cryo-EM structure; FGF23, one FGFR ectodomain, αKlotho^ecto and heparin dodecasaccharide (HO12) mixed 1:1:1:1; complex isolated on Superdex 200 in 25 mM HEPES pH 7.5, 100 mM NaCl; peak fractions vitrified; both purified

| binding | Substance |
| --- | --- |
| binds | extracellular ligand-binding region (D2–D3 region) of FGFR3c (residues Asp142 to Arg365) (human) (domain or fragment) |
| binds | extracellular ligand-binding region (D2–D3 region) of FGFR4 (residues Asp142 to Arg365) (human) (domain or fragment) |
